These are literature values, as cited in patent US6645755B1, “VECTOR MODIFIED BY SEQUENCE CODING FOR A SEQUENCE OF AMINO ACIDS CONTAINED IN A MAMMALIAN PROTEIN HAVING THE BIOLOGICAL ACTIVITY OF A MEMBRANE RECEPTOR, EXPRESSION OF THIS SEQUENCE IN TRANSFORMED UNICELLULAR CULTURES BY MEANS OF THIS VECTOR, PROCEDURE FOR STUDYING LIGANDS RECOGNIZING THESE RECEPTORS” (Centre National de la Recherche Scientifique, priority 1988, dated 2003).

The target of the series is mamm. β2AR. Particulars: reference mammalian tissues; cited from earlier work.

On to `CC(C)NCC(O)COc1cccc2ccccc12` (stereo not shown) [propranolol], for which the Ki (as a rule, the equilibrium dissociation constant of an inhibitor or competing ligand from its target) was 0.54 nM.
